Values joined by “and” are separate entries in the source; they are usually repeats but may differ in a detail not shown here. Equal entries are not always repeated. The source gives many values for each of these; only a part stands here.
Biological target: T1, HiBiT-SOCS2 fusion in HeLa cells (Homo sapiens, UniProt O14508)
T1 construct: encoding SOCS2 (32–198) in pBiT3.1-N expression vector; expressed in transfected cells; host or cells: HeLa
Assay: Split-NanoLuc CETSA, live-cell mode
Type: cell-based
Design: reference not given here
Details: 50uM 20hrs
Experimental: One of the challenges with small-molecule binders displaying on-target activity with recombinant proteins, is to translate their utility to a cellular context. […] One of the advantages of CETSA is that target engagement can be monitored without the need for the development of a cell-permeable tracer molecule.
We utilized CETSA in a live-cell mode to evaluate the efficacy and rank the different prodrugs. We treated live HeLa cells with 50 μM compound (prodrugs) for 20 h and monitored Tagg shift as a proxy for the combo of prodrug permeability and unmasking (Fig. 4d). […] The observation could be because the POM group unmasking requires only esterase unlike the reliance of compounds 21–23 on esterase and phosphoramidase for unmasking an aryloxy phosphoramidate group.
N-terminal HiBiT-SOCS2 fusion was generated by encoding SOCS2 (32–198) in pBiT3.1-N expression vector (Promega). The transfection and target engagement assay were performed by modifying a NanoLuc target engagement protocol (Promega) with some small modifications. Briefly, HiBiT-SOCS2 fusion construct was transfected into HeLa cells using FuGENE HD (Promega) according to the manufacturer’s protocol. HiBiT-SOCS2 fusion construct was diluted into Transfection Carrier DNA (Promega) at a mass ratio of 1:100 or 1:10 for permeabilised and live-cell CETSA respectively. FuGENE HD was added at a ratio of 1:3 (μg DNA: μL FuGENE HD). 1 part (vol) of FuGENE HD complexes thus formed were combined with 20 parts (vol) of HeLa cells suspended at a density of 2 × 10^5 cells/mL, followed by incubation in a humidified, 37 °C + 5% CO2 incubator. After 20 h of incubation HeLa cells were detached and resuspended at a density of 2.5 × 10^5 cells/mL in Opti-MEM media without serum or phenol red but supplemented with protease inhibitor cocktail (Roche). Compounds stocks were added to cell suspension to maintain a final DMSO concentration of 1%. For the permeabilised assay format, 96-well PCR plates (Thermo) were pre-treated with digitonin to have a final well concentration of 50 μg/ml. 50 μl Opti-MEM cell suspension was then aliquoted to each well of the 96-well plate. The plates are then covered with microporous tape sheet (Qiagen) prior to incubation in a humidified, 37 °C + 5% CO2 incubator. Post-incubation we heat the PCR plates in 16-point temperature (split across two runs) curve spanning degrees 40-72 °C temperature span (CFX96 Touch Real-Time PCR Detection System, BioRad). The thermal cycler block was allowed to rise to the designated temperatures prior to placement of the PCR plates into the heating block and heat treatment for 3 min. After incubating the plates at room temperature for over 3 min, 50 μl of the Nano-Glo HiBiT Lytic mix (Promega) was added to each well. Samples were mixed by pipetting and placing the plate on an orbital shaker (600 rpm) for 5 min. 20 μl of the samples (in triplicates) were transferred to a AlphaPlate-384 plate (Perkin Elmer). Luminescence was recorded with GloMax Discover Microplate Reader (Promega). To generate apparent Tagg curves, the data is first converted to percent stabilized by relating the observed luminescence to the luminescence of the lowest temperature (40 °C) for that given sample. Data are then fitted to obtain apparent Tagg values using the Boltzmann Sigmoid equation using Graphpad Prism 9.

Chains of the proteins cited; added tags and fusions are not shown. Residues count along the entry.
UniProt O14508, 32-198: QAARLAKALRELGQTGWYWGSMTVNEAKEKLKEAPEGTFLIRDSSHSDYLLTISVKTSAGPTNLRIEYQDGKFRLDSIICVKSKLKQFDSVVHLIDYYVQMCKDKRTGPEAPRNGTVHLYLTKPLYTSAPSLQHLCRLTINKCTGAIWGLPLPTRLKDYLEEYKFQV

**Q.** Which results are given for O=C(CCl)Nc1cccc(CNC(=O)[C@H](Cc2ccc(OP(=O)(O)O)cc2)NC(=O)Cc2ccc(F)cc2)c1 [MN551]?
**A.** Produrg CETSA screening, raw signal (n=1, temperature point 1 of 16, temperature not given): 44774 and 26778 and 30284; Produrg CETSA screening, raw signal (n=1, temperature point 2 of 16, temperature not given): 44554 and 37931 and 56371; Produrg CETSA screening, raw signal (n=1, temperature point 3 of 16, temperature not given): 40559 and 36111 and 57202; Produrg CETSA screening, raw signal (n=3, Temp, 0C 40): 187874 and 194851 and 193056; Produrg CETSA screening, raw signal (n=3, Temp, 0C 40.9): 177840 and 189177 and 186823; Produrg CETSA screening, raw signal (n=3, Temp, 0C 42.9): 175062 and 180886 and 183916; Produrg CETSA screening, raw signal (n=3, Temp, 0C 45.8): 172872 and 173976 and 188111; Produrg CETSA screening, raw signal (n=3, Temp, 0C 49.5): 227413 and 234476 and 248725; Produrg CETSA screening, raw signal (n=3, Temp, 0C 52.4): 133609 and 146998 and 149874; Produrg CETSA screening, raw signal (n=3, Temp, 0C 54.1): 107344 and 100683 and 108494; Produrg CETSA screening, raw signal (n=3, Temp, 0C 55): 79349 and 95654 and 92417; Produrg CETSA screening, raw signal (n=3, Temp, 0C 56): 95720 and 103700 and 105998; Produrg CETSA screening, raw signal (n=3, Temp, 0C 57.1): 87545 and 101422 and 108266; Produrg CETSA screening, raw signal (n=3, Temp, 0C 59.2): 58885 and 77117
